Results from paper PMC8964682, “Structural and biochemical characterization of in vivo assembled Lactococcus lactis CRISPR-Csm complex” (Communications Biology, 2022).
These are yes or no findings as the source states them, for the method shown. Binding calls can cover weak binding; strength is not graded here. For part of these data: Where a sequence is shown, tags or fusion partners need not be part of it. For part of these data: In cells and extracts the contact can be indirect.

Legend:
[1] = molecular target: T1, Lactococcus lactis Csm4, subunit of the LlCsm complex (Lactococcus lactis) (UniProt L0CFH1); test: cryo-EM structure; co-purified LlCsm (Csm1 D14N, Csm3 D30A)-crRNA without target RNA (apo); 2.9 Å; both purified
T1 sequence: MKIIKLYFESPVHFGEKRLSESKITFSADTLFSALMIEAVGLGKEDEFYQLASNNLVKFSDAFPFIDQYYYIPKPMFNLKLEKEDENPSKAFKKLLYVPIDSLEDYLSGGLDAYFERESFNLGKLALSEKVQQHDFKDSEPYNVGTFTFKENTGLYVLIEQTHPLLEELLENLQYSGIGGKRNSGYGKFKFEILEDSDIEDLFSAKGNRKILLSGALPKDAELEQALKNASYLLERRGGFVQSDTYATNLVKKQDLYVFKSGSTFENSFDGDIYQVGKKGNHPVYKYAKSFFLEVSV

[2] = molecular target: T2, Lactococcus lactis Csm2 with N-terminal His6-tag, subunit of the LlCsm complex (Lactococcus lactis) (UniProt L0CFW2); test: cryo-EM structure; co-purified LlCsm (Csm1 D14N, Csm3 D30A)-crRNA incubated with NTR at 1:2, 37 °C, 60 min, then SEC; 3.4 Å; both purified
T2 sequence: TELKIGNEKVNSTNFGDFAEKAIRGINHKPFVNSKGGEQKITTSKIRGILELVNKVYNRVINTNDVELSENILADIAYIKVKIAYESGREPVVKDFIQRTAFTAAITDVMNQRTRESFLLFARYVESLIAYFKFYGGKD

[3] = molecular target: T1, Lactococcus lactis Csm4, subunit of the LlCsm complex (Lactococcus lactis); test: as above
[4] = molecular target: T2, Lactococcus lactis Csm2 with N-terminal His6-tag, subunit of the LlCsm complex (Lactococcus lactis); test: cryo-EM structure; apo subpopulation from a mixture of LlCsm with DTR, no DTR bound; 4.5 Å; no model built, used only to confirm presence and placement of the subunits; both purified
[5] = molecular target: T1, Lactococcus lactis Csm4, subunit of the LlCsm complex (Lactococcus lactis); test: as above
[6] = molecular target: T1, Lactococcus lactis Csm4, subunit of the LlCsm complex (Lactococcus lactis); test: cryo-EM structure; co-purified LlCsm (Csm1 D14N, Csm3 D30A)-crRNA incubated with CTR at 1:2, 37 °C, 60 min, then SEC; no ATP; two classes, CTR-43 (3.0 Å) and CTR-32 (3.3 Å); both purified

Measured: binding

Lactococcus lactis Csm1 (Cas10) Asp14Asn, subunit of the LlCsm (D14N)1(D30A)3 complex
binds: all assays above
